Screen size: about 53,000 sequences; about 3,700 (7%) were called active.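 Rule for the calls: active = gene knockdowns whose robust z-score for IL-1 alpha signal is at least 2 or at most -2, so actives lie on both sides; inactive = the rest.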 Some of the results follow.
Test: Components of the Cytosolic LPS Sensing Pathway: Gene Identification via Genome-wide siRNA Screen;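 note: robust z of the log signal after scaling to non-targeting control siRNA wells of the plate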
Conditions: RAW264.7 macrophages, IL-1a HTRF, actives lie on both sides, screened at 100 nM (by protocol), cells primed 5 h with Pam3CSK4 first
Method in brief: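 Supernatant IL-1a by HTRF from RAW264.7 cells primed with Pam3CSK4 (5 hours) and transfected with LipidA (24 hour) after 48h siRNA knockdown at 100 nM; cell viability checked with CellTiter-Glo.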

Sequence	z-score
GGGUUUAUAAUUGGGAUGUTT against Vbp1	inactive: 0.478
GCACUGCAUAUUCCGCACUTT against Nubp2	inactive: 1.4
CCAGCUUGUUACUAAGUAATT against Mgat3	inactive: -0.227
GUACUUCACACCAGUUACATT against Olfr308	inactive: 0.824
CGAGGAAAAUUCCCGUCCCTT against Pno1	inactive: 0.474
GCACUGUGAAUUUGUCAUUTT against Umps	inactive: 1.22
GGGUCAUCCAAAUGGUUUGTT against Grm6	inactive: 0.323
CCGUUCACAAGAAUUACACTT against Grb2	inactive: -0.665
CCAAUUCACUUAGGAGCUGTT against Psma4	active: -2.1
GGUGCUCUCAGGAAAGUUGTT against Olfr1157	inactive: 0.82
GACAAUGCAAACUUUUGGGTT against Vmn1r231	inactive: -1.51
GGUACACACGGACAAACGCTT against Esyt3	inactive: 0.294
GGCCUAGAUAGAAUUCGUGTT against 6330403K07Rik	inactive: -1.58
GGAUGAAGAGAAAGUUCUATT against Mak	active: 2.49
GGUGAUGAAGGAUUUGAUUTT against Cbll1	inactive: -0.0253
GGGUCAUCAACUCUUACAATT against Gga3	inactive: 0.943
GGAUGACUGUAAGUUACGGTT against Mast2	inactive: -0.229
GCUCUUCAGUUUAUAGUGUTT against Taar3	inactive: -0.995
GGUAAAAGCUGUUUGAGAGTT against Smim3	active: -3.43
GGCCAAAUAUUGAUCUUAATT against Rgs4	inactive: 0.735
GGAAGAAAUACUACAGCCATT against Ptpn12	inactive: -0.733
GGCGAGGAUGGUAUUGAGATT against Sema3f	inactive: 0.353

Sequence	z-score
GGGUGAGGGCAUUAGAGAUTT against E2f1	inactive: 0.568
GGUGAUUUAGUUGUGUAAATT against Calcr	inactive: 0.294
GGCCUUAGAAUUUGAUUCUTT against Slc30a8	inactive: 0.814
CGGCAUCCUAGACACCUUUTT against Rax	inactive: 0.646
GGCUUUCCUAUCAUGGUUUTT against Anp32e	inactive: 1.06
GGAUAUUCCGGAAGAUAUUTT against Mrpl13	inactive: 1.17
GGCUGGUGGAUAAUGAUUGTT against Tmem50b	active: 2.18
GGGCCAGUUCCCAAUGAAATT against Gfm1	inactive: 0.125
CCCUAACAUACUGGAGCUATT against Erfe	active: 3.56
CGGUUUAACAGCAAGGGUATT against Sec61a1	active: -2.75
CGACCAAGUCAUUGUUAAGTT against Igf2bp1	inactive: 0.524
GCUUGUCUCACACAGCUCUTT against Olfr401	active: -3.11
GGCAAAGCUGGUGAAAUACTT against Ksr1	inactive: -0.556
CCUUCGAUGAAGUAUACAATT against Ipo4	inactive: 1.94
CCUAGAAAAGUCAUUGUCATT against 3010003L21Rik	active: -2.08
GGCUAACAUAUGAAUCACUTT against Exoc2	inactive: -1.71
GGAUGACGACGAUUACAACTT against Nkx6-1	inactive: 1.1
GGAAAUGCAGAAGUUCUUUTT against Mmp7	inactive: -0.146
CCAGCUUUGGGAAAUACCGTT against Sertad1	active: -2.39
GGAUCAUGAAUACGUUCAGTT against Tubb4a	inactive: -1.43
GCGAACAGUUGAAUAGAUUTT against Slc25a46	inactive: -0.108
AGACUGGGUUGUGAAGAUATT against 4930563M21Rik	inactive: -1.68

Sequence	z-score
GAUGUUCUUCUUACACUCCTT against Olfr559	inactive: -1.2
GGCAAAGUUUGACCAGUGUTT against Ndufa8	inactive: 1.26
GCUUCAGAUUGGUGUGAUATT against Rec8	inactive: 0.762
GGAGCUGGAAGAGUGGUAUTT against Clta	inactive: -0.535
GCAUCUCAAAGUGUCACUATT against Ubxn10	inactive: 0.56
GCCCUACCUUGAAUCCCAUTT against Olfr532	inactive: -1.75
GGAGAGAGGAAUUCAACAGTT against Zfp317	inactive: 0.734
GGGCCUCCAAUUUGUGGCUTT against Cd1d1	inactive: 0.176
GGUGUGUGGUGUUAAAAAATT against Mybph	inactive: -0.81
GGUGGAAAGCAAGAAACACTT against St8sia6	inactive: -1.89
GGAAUAUGACUACAUGAAATT against Calu	inactive: -0.0124
GGGAUGGACAAGUUGUACUTT against Renbp	inactive: -0.101
CGUGGGCUCUCUAGAUGAATT against S100a13	inactive: 0.806
GGAUACAAAUGAAAGCUUATT against Zfp354b	inactive: -0.307
CCAUGAGUAUCAAGUCAAUTT against Septin9	inactive: 1.14
GGGCUGUUCCAUUUCUUUATT against Atcay	inactive: 0.727
CGAGAUCUGACAUAGUGUCTT against Pdia6	inactive: -1.85
GGAUAACCUCGUCUUCAACTT against Wdr66	inactive: 0.433
GGGCCACACAUCAAACAGUTT against Fsip1	inactive: 0.165
GAAGAGUAACGAAGAAUACTT against Olfr199	inactive: -0.0929
GGAUGUCAAGCUUUCCCAATT against Armh4	inactive: 0.154
GGGAAGAAGCCCAAAUGCUTT against Pla2g2a	inactive: -0.878

Sequence	z-score
GCUAUGGAACAGUCUGUCCTT against Clec5a	inactive: -0.522
CGGAAGAAGUUAUUUAGAATT against 1700006J14Rik	inactive: 0.87
GGUUGUCGUCAUCCUGGAATT against Kcnj3	inactive: -0.854
GGAAGGUAUAGACAACUAUTT against Syngr3	inactive: 1.72
GCCGUUUUCCACCAAUGACTT against Ammecr1	inactive: -0.5
CGAAAUUGAUUCUAUCUGCTT against Katnal1	inactive: -0.59
GGUUUCUGCAUUGAUAAGATT against Olfr727	inactive: -0.342
CGCUUGACACUCACACUUUTT against Hoxa9	inactive: 0.316
GGUAGAUAUUGGAAUACCUTT against Vcp	inactive: -1.69
GGUAGCCAUAUCUAACAGCTT against Scd1	active: -2.02
GGAUGUAAAAUCCAUUGUUTT against Ica1l	inactive: -0.647
CCUUCCUAAGCUUACACAATT against Cradd	inactive: 0.598
GCAAGUAACAAUCGCUUAUTT against Wdr47	inactive: 0.394
GGUGCUGUAUUUGAUGUUATT against Nudt6	inactive: 0.544
CCAGUACUCACUAGAUUUATT against Tnfsf18	inactive: 1.17
GCACUGGAAAUUGUAUAAATT against Hyal6	active: 2.19
GGAAAACAAGAGAAGGCGCTT against Pom121	inactive: 0.361
GGAAACUUAUGGAAAGUCUTT against Trmt11	inactive: 0.606
GAGUAUGCUACCAAUUCCUTT against Olfr1141	inactive: 0.776
CCUACGUUCAAGACUCGAGTT against Ptgir	inactive: 1.47
GGCAAAGCAUAUUUUUCUATT against Med17	inactive: -0.138
GCAAUUGAGACUGGCCUCATT against Olfr151	inactive: 0.253

Sequence	z-score
GCAUCAUCGUGGGAAACCUTT against Olfr1284	inactive: 0.331
GGUUGGCAUGUUUGGUGUUTT against Arhgap35	inactive: -0.451
GGGAAAGCAAAAAUAAUCUTT against Pdpn	inactive: 1.11
CCUGUUGUCAUGCACUUUATT against Pla2g4c	inactive: -0.99
UCCUCUCUCUAUAUUUCUUTT against Defb38	inactive: -0.588
GGACAUUUGAGCUCAAGAUTT against Mrpl11	inactive: 0.609
GGCAAGCACACAAUGAUGCTT against Plin5	inactive: -0.0222
GGCGAGUCUACGUGACACUTT against Arrb1	inactive: 0.701
GGUGCCGCACACAAACAAUTT against Hipk2	active: -2.02
GGAUCAUUAAGACCCAGCATT against Ddx59	inactive: -1.36
GGCGUAAGUUGGAUUUGUUTT against Idh3b	inactive: 0.652
GGCAGAUGAUCCCGGGAUUTT against Clvs1	inactive: 0.545
GGGUUGAAGUUUGUCGAAATT against Nlgn1	inactive: 0.496
GGAAGAUUCGUUCAGACCUTT against Cntf	inactive: -0.743
GGGCUCUUGUGUUAAGGCATT against Krt27	inactive: -0.119
GGCAUUUGAAAUGCUCAUCTT against Aadat	inactive: -1.7
GCACGCCUGAUGCUAGAGATT against Gss	inactive: -0.0299
GGCAAUAAGUAAACACCUGTT against Hnf4aos	inactive: 0.364
GGAGGAAUUUGGCUAUAAUTT against Arfip2	inactive: 0.122

Look-ups from above.
In z-score, CCUGUUGUCAUGCACUUUATT against Pla2g4c shows inactive: -0.99
In z-score, GGGUUGAAGUUUGUCGAAATT against Nlgn1 shows inactive: 0.496
In z-score, GGAUCAUUAAGACCCAGCATT against Ddx59 shows inactive: -1.36
In z-score, GGCAUUUGAAAUGCUCAUCTT against Aadat shows inactive: -1.7
In z-score, GGCAAGCACACAAUGAUGCTT against Plin5 shows inactive: -0.0222
In z-score, GGCAAUAAGUAAACACCUGTT against Hnf4aos shows inactive: 0.364
In z-score, GGCGAGUCUACGUGACACUTT against Arrb1 shows inactive: 0.701

Source: PubChem BioAssay AID1508600 (Functional Genomics Laboratory (NCATS/FGL), 2020)
